In PubChem BioAssay AID2685 (National Center for Advancing Translational Sciences (NCATS), 2010):
The list shows a part of the results. These are further read-outs of the screen, such as a control signal, another cell line or another target. No call is given for them. The list favours compounds with an active or inconclusive main result. Potencies come from curve fits of mixed quality, noted in brackets.

Assay: qHTS Assay for Lipid Storage Modulators in Drosophila S3 Cells;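 on cell number change: cells counted by Cell Tracker Red CMTPX staining in the red channel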
Settings: BODIPY lipid droplet fluorescence, 18-24 h; for cell number change: measured here: cell count max response, cells fed with added oleic acid
Procedure, shortened: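 Drosophila S3 cells loaded with oleic acid (400 uM, as added) and compounds at several concentrations; lipid droplets imaged by 488-nm laser-scanning cytometry, 500–530 nm intensity and object ratio to cell channel. Percent activity normalized to 20 uM Triacsin C.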

[1] = measured here: lipid fluorescence (Fed channel) AC50, cells fed with added oleic acid
[2] = measured here: cell number channel AC50, cells fed with added oleic acid

Row | Compound | cell number change | AC50 [1] | AC50 [2]
1 | COc1ccc(N2CCN(c3ccc(NC(=O)NN)cc3)CC2)cc1 | -8.21% | 29100 nM [rising, single point] | –
2 | CC(=O)c1cccc(NC(=O)C(C)OC(=O)c2cc(C)oc2C)c1 (stereo not given) | 56.2% | – | 16400 nM [rising, partial curve]
3 | Cc1ccc(NC(=O)CN2C(=O)NC3(CCCc4ccccc43)C2=O)c(C)c1 (stereo not given) | – | 517 nM [rising, partial curve, poor fit] | 82 nM [rising, full curve, poor fit]
4 | CC(C)c1ccc(S(=O)(=O)N2CCC(C(=O)N3CCC3)CC2)cc1 | 27.6% | – | –
5 | COC(=O)CSc1nsc(SCC(=O)OC)n1 | -11.3% | 32600 nM [falling, single point] | –
6 | Cc1cc(C)n2nc(CCCO)nc2n1 | 49.4% | 13000 nM [rising, partial curve] | 11600 nM [rising, partial curve, poor fit]
7 | O=C(Nc1ccc(-c2cn3ccccc3n2)cc1)c1cccs1 | -20.8% | – | 1840 nM [rising, single point]
8 | CC1CCCC(NC(=O)c2ccc3c(c2)NC(=O)CS3)C1C (stereo not given) | 18.5% | 18400 nM [falling, partial curve, poor fit] | –
9 | Cc1c(NC(=O)C2CCCN2S(=O)(=O)c2cccc3nsnc23)cccc1C(=O)O (stereo not given) | – | 1160 nM [rising, single point] | 1160 nM [rising, single point]
10 | Cc1csc(SCC(=O)N(C)CC(=O)Nc2ccccc2Cl)n1 | 17.8% | 13000 nM [rising, single point] | –
11 | CC1COc2c(N3CCN(C)CC3)c(F)cc3c(=O)c(C(=O)O)cn1c23 (stereo not given) | -0.867% | 1160 nM [falling, full curve] | 1160 nM [falling, full curve]
12 | CCN1C(=O)c2ccccc2Sc2ccc(C(=O)NCCCN(CC(C)C)CC(C)C)cc21 | 16.1% | 2310 nM [falling, single point] | –
13 | COc1ccc(COCC(O)CN(Cc2ccccc2)C(C)C)cc1OC (stereo not given) | -19.9% | – | –
14 | O=c1c2ccccc2nc(SCCN2CCOCC2)n1CCc1ccccc1 | 28.6% | 4.61 nM [rising, full curve, poor fit] | –
15 | O=S(=O)(Nc1cccc(-n2cnnn2)c1)c1ccc(F)cc1 | 18.5% | – | 2590 nM [rising, partial curve]
16 | CCC1CCCCN1C(=O)CSC1=NN2CCCC(=O)N=C2S1 (stereo not given) | 17.3% | 2910 nM [rising, full curve, poor fit] | –
17 | Cc1ccc(/C(N)=N/OC(=O)Oc2ccccc2)cc1 | -21.6% | 731 nM [falling, full curve, poor fit] | 6.51 nM [falling, full curve, poor fit]

2 entries picked at random from those above:
Row | Compound | cell number change | AC50 [1] | AC50 [2]
15 | O=S(=O)(Nc1cccc(-n2cnnn2)c1)c1ccc(F)cc1 | 18.5% | – | 2590 nM [rising, partial curve]
2 | CC(=O)c1cccc(NC(=O)C(C)OC(=O)c2cc(C)oc2C)c1 (stereo not given) | 56.2% | – | 16400 nM [rising, partial curve]
